Source: article PMC7510299

What was measured:
Test in all cases: two-hybrid; pGBKT7 (BD, bait) and pGADT7 (AD, prey) fusions co-transformed into yeast AH109; spotting on X-a-gal medium without Leu, Trp, His and Ade; 30 °C, 3–5 days; every pair tested in both directions
[1] = target: TeAGL11–1 (Tagetes erecta (marigold))
[2] = target: TeAG1 (Tagetes erecta (marigold))
[3] = target: TeAG2 (Tagetes erecta (marigold))
[4] = target: TeAGL11–2 (Tagetes erecta (marigold))

binding [1]	binding [2]	binding [3]	binding [4]	Substance
no binding	no binding			TeAGL11–2 (from UniProt A0A7L9DIK2)
	binds			TeAG2 (from UniProt A0A8E4LHE8)
binds		binds	no binding	TeAG1 (from UniProt A0A8E4LJ76)
	binds		no binding	TeAGL11–1 (from UniProt A0A7L9DJZ2)

Results are given in words; binding and its absence hold for the method and conditions named. For some assays here: A result given as binding can be weak or reduced; the word gives no strength.
